This is an account of results in paper PMC7156367, “Cell surface processing of the P1 adhesin of Mycoplasma pneumoniae identifies novel domains that bind host molecules” (Scientific Reports, 2020).

Sequences of proteins named here, by UniProt entry; tags and fusion partners are left off. Residues count along the entry.
UniProt P02788, residues 20-710: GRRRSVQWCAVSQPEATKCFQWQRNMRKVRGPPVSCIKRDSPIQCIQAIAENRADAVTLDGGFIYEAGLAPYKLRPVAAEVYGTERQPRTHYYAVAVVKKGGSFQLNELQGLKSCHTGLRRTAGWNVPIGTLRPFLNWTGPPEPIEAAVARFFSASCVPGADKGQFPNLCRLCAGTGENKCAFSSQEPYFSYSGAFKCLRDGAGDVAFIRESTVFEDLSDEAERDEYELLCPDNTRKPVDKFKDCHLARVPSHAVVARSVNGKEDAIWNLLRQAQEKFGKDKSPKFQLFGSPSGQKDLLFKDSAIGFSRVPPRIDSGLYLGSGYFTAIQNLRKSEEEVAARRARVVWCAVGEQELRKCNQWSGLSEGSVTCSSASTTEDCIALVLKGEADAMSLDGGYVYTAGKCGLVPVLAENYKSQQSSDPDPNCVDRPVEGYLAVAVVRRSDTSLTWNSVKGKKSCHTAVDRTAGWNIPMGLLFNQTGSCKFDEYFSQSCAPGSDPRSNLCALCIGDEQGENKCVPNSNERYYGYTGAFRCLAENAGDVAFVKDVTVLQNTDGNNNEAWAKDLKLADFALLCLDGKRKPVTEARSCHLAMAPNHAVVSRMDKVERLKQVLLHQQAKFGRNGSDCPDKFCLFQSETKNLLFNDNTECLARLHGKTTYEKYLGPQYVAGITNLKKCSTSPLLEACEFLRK

Test [1] has as its target P1-15, synthetic C-terminal peptide of P1 adhesin with N-terminal biotin (Mycoplasma pneumoniae). Description: ELISA; 15 µg/ml of C-terminal P1 fragment bound to wells, incubated with host protein at several concentrations; detected with antiserum against the host protein, absorbance at 450 nm; both purified. (In general: ELISA stands for enzyme-linked immunosorbent assay.)

The target of test [2] is T1, Fetuin, fluorescent labelled (microscale thermophoresis) (bovine) (UniProt P12763).
T1 sequence (chain, fluorescent label): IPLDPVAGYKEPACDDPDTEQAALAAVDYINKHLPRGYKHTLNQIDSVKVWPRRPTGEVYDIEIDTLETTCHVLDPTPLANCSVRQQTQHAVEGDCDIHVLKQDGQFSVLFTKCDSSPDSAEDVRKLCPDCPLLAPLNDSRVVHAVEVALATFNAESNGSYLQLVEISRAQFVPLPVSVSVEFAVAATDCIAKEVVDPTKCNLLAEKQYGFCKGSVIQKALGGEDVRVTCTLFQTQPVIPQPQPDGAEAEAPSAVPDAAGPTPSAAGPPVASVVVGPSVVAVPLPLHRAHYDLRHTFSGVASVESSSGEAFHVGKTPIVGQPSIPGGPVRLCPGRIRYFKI
Description: MST; fluorescent labelled host protein, peptide titrated; thermophoresis 30 s, 40%, 60% and 80% MST power; both purified.

These are yes or no findings as the source states them, for the method shown.

Turning to “Human lactoferrin (from UniProt P02788 20-710)”, the binding result in test [1] is “no binding”.

As to PKPPRAAPPKAPTPVPPGPASPVKKPKQAPG [Scrambled version of P1-30], the binding result in test [2] is recorded as “no binding”.
